This note sets out measurements from US20220041753A1 (H LEE MOFFITT CANCER CENTER AND RESEARCH INSTITUTE, published 2022).

No constants are given. Whether binding was seen depends on the method and setting. Some entries that bind do so weakly or less than the wild type.

In the assay the target is T1, ZNRF3 ECD (UniProt Q9ULT6 56-219, limits assumed).
T1 construct: extracellular domain; also called ZNRF3 extracellular domain; fluorescently labeled ZNRF3 ECDs
T1 sequence (looked up): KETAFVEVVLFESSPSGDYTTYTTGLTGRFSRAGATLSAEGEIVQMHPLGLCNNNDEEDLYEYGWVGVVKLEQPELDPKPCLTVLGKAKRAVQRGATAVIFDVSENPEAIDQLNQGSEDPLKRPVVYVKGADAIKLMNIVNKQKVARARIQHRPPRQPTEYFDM
The assay is described as follows: flow cytometry, scFv displayed on yeast, fluorescently labeled ZNRF3 ECD. For orientation: In flow cytometry, cells or beads pass a laser one at a time.

B1: ZNRF3-specific scFv "Z6" (scFv)
scFv: ASQVQLVQSGAEVKNPGASVKVSCKASGYAFTSYGISWVRQAPGQGLEWMGWISAYTRNTNYAQKFQGRVTLTTDTSTSTAYMELRSLRSDDTAIYYCARDARYSLGVGAFDVWGQGTMVTVSSGILGSGGGGSGGGGSGGGGSETTLTQSPAFMSATPGDKVSISCKASRDIDDDLNWYQQKPGEAAISIIQEATTLVPGIPPRFSGSGYGTDFTLTINNIESEDAAYYFCLQHDDVPYTFGQGTKLEIKSGIL
notes: the display fusion is not described; also called ZNRF3-specific single-chain antibody variable fragment (scFv)
For the molecule B1, the binding result is on record as “binds”.
